Literature values as cited in patent US20060235005A1, “Use of phosphodiesterase 5 (PDE5) inhibitors in the treatment of schizophrenia” (Oak Labs, Corp., priority 2005, published 2006).
At least one structure is not confirmed: it was looked up by name or label, or the drawing left a doubt.

How the values were obtained:
[1] = in vivo
[2] = tested on: men with erectile dysfunction
women with FSD = conditions: phase I trial, vs placebo
[3] = tested on: men with severe ED after nerve-sparing radical prostatectomy; conditions: 3 months, 10- or 20-mg doses
[4] = tested on: hypertensive men with mild-to-moderate ED; conditions: 5, 10 or 20 mg

For CN1CC(=O)N2[C@H](c3ccc4c(c3)OCO4)c3[nH]c4ccccc4c3C[C@@H]2C1=O [tadalafil], the “onset of action (time to effects)” value [1] is listed as ≤ 20 min, the “men with significantly improved erections” value ([2]; 2.5-20 mg once daily as needed, over 1100 men) is listed as “up to 81%” and the “mean percentage of successful intercourse attempts” value ([2]; phase III) is listed as 75%. For the same compound, the “treatment effect in women with FSD” value (women with FSD) was “no conclusive treatment effect relative to placebo”.

For CCCc1nc(C)c2c(=O)[nH]c(-c3cc(S(=O)(=O)N4CCN(CC)CC4)ccc3OCC)nn12 [vardenafil], the maintenance of erection ([3]; placebo 10%) is given as 36%, the successful penetration ([3]; placebo 22%) is given as 47% and the “efficacy results vs placebo” value [4] is given as “far superior to placebo”.
